Assay results as given in the supplement of paper PMC6445147.
Single values of this data set are uncertain.

B1: human tRNA-Pro; a variant is named by its letters at N, in order (parent)
chain: GGCTCGTTGGTCTAGNGGTATGATTCTCGCTTAGGGTGCGAGAGGTCCCGGGTTCNNATCCCGGACGAGCCC

Legend:
[1] = variants of: B1; experiment: tRNA Pol-III promoter activity, log2 (circRNA frequency / plasmid DNA frequency) (log2 ratio); higher = stronger promoter activity; settings: HEK293T; construct: no Pol-II promoter ((-)CMV library)
[2] = variants of: B1; experiment: tRNA 3' processing efficiency (processed reads / all reads, maximum-likelihood estimate) (fraction); higher = more efficient 3' processing; settings: HEK293T; construct: no Pol-II promoter ((-)CMV library)
[3] = variants of: B1; experiment: tRNA 5' processing efficiency (processed reads / all reads, maximum-likelihood estimate) (fraction); higher = more efficient 5' processing; settings: HEK293T; construct: CMV Pol-II promoter ((+)CMV library, decapped)

Variant	tRNA Pol-III promoter activity (log2) [1]	tRNA 3' processing efficiency [2]	tRNA 5' processing efficiency [3]
AAT A58G	8.87	0.18	–
GAT G9T G15T T54A	2.84	0.14	–
TAG T8C A20C	4.74	0.14	–
GAG G15T G17A	3.45	0.17	–
CAT A58T	2.23	0.25	–
CAT A58G	1.87	0.25	–
TAT A14T G17A T19A C55A	3.19	0.33	–
GAT A14C A58G	4.07	0.2	–
GAG G15C G17T	3.71	0.5	–
GAT A14G G18A T19G	6.75	0.05	–
GAG T54C	0.138	0.5	0.2
GAT A14T T19G	2.16	0.29	–
GAG T19A A20T	4.77	0.38	–
GAG T8C	2.46	0.32	–
GAG T8G	1.17	0.56	0.25
GAG G17C G18A	3.03	0.25	–
GAG G17T G18T	1.67	0.2	–
GAG T8A A20T	3.43	0.29	–
GAT A14C G18A	3.36	0.2	–
GAT G9C	1.39	0.47	–
GAT G9T	1.44	0.17	0.2
GAT G9A	3.71	0.27	–
GAT A14T G15C	3.03	0.2	–

Variant	tRNA Pol-III promoter activity (log2) [1]	tRNA 3' processing efficiency [2]	tRNA 5' processing efficiency [3]
GAT A14T G15T	5.16	0.57	–
CAG G17T	6.15	0.07	–
GAT A14C G17A	4.25	0.88	–
GAT G9T A14G A58T	4.93	0.25	–
GAG T59C	3.35	0.29	–
GAG T59A	0.9	0.31	–
GAG T59G	2.43	0.14	–
AAT G15A A58T	4.67	0.4	–
GAT A14G G17A T19C	3.94	0.25	–
GAG T8C G15A	3.03	0.2	–
GAG T8C G15C	7.84	0.14	–
GAT A14C A20T	6.11	0.17	–
GAT A14T A20T	1.45	0.25	–
GAT A14C T19C	6.88	0.2	–
CAT	2.44	0.27	–
AAT	3.62	0.23	0.25
TAG T19A	4.65	0.56	–
TAG T19C	4.38	0.57	–
TAG T19G	4.46	0.26	–
AAG T53C	3.41	0.44	–
GAG T8G A20T	4.3	0.22	–
GAG T8C T59G	4.71	0.38	–
GAG T8C T59C	4.84	0.29	–

Five neighbouring records already listed:
Variant	tRNA Pol-III promoter activity (log2) [1]	tRNA 3' processing efficiency [2]	tRNA 5' processing efficiency [3]
CAT	2.44	0.27	–
AAT	3.62	0.23	0.25
TAG T19A	4.65	0.56	–
TAG T19C	4.38	0.57	–
TAG T19G	4.46	0.26	–

Next records follow.

Variant	tRNA Pol-III promoter activity (log2) [1]	tRNA 3' processing efficiency [2]	tRNA 5' processing efficiency [3]
GAT G9A A14G	3.72	0.33	–
GAT G9A A14T	5.64	0.16	–
GAG T8G G9T	3.26	0.4	–
GAT G9T A14T	2.56	0.4	–
GAG G15T	-1.51	0.33	0.5
AAG T19G	7.46	0.28	–
AAG T19A	7.28	0.37	–
GAT A14C T53G	3.44	0.2	–
TAT A14G A20T	3.94	0.57	–
GAT G15A A58G	3.55	0.2	–
GAG G18T T59A	4.94	0.62	–
GAT A14T G18A	1.88	0.5	–
CAG T59C	3.74	0.43	–
GAG G17C G18T A58G	5.53	0.17	–
GAG T8C A20T	2.94	0.33	–
GAG T8A T19G A58G	6.36	0.4	–
GAG T8G T19G	4.36	0.5	–
AAT G9A A58G	6.26	0.07	–
CAG T19C A20T	7.51	0.33	–
AAG T59A	3.19	0.33	–
AAG T59G	3.66	0.21	–
GAT G15A A20T T54G	3.14	0.43	–
AAT A14G	3.79	0.25	–

Variant	tRNA Pol-III promoter activity (log2) [1]	tRNA 3' processing efficiency [2]	tRNA 5' processing efficiency [3]
AAT A14C	4.32	0.31	–
AAT A14T	3.73	0.21	–
GAG T8G G18A	4.2	0.22	–
AAT G9A	6.64	0.46	–
GAG T19A T59C	5.89	0.45	–
GAG T19A T59A	5.03	0.25	–
GAG T8C T19A	4.34	0.55	–
GAG G17C	0.548	0.42	0.33
GAG G17A	-0.334	0.32	–
GAG G17T	0.542	0.24	–
GAG T8G T19A A20T	7.03	0.62	–
TAT	2.64	0.35	0.33
GAG T8A G18A	1.56	0.2	–
GAG T54A A58T	2.48	0.38	–
GAG G17A T19C	4.98	0.33	–
GAT A14C	2.38	0.3	–
GAT A14G	3.7	0.27	0.19
GAT A14T	3.6	0.36	–
TAG T53A	3.26	0.4	–
GAG T19A A58T	3.36	0.25	–
TAT A14G G17T T53A	3.3	0.33	–
GAT C55G	-0.666	0.17	–
GAG T53A A58G	2.81	0.5	–

Variant	tRNA Pol-III promoter activity (log2) [1]	tRNA 3' processing efficiency [2]	tRNA 5' processing efficiency [3]
CAG T19C C55G	2.71	0.5	–
GAG T19A A20T A58T	4.19	0.17	–
GAG T19C T59C	4.36	0.25	–
AAT A14T T53C	3.93	0.75	–
GAT A58C	0.68	0.41	–
GAT A58G	2.04	0.33	–
GAT A58T	0.804	0.45	0.21
CAT G9A G18C T54A T59A	4.36	0.75	–
GAG T8C T54G	3.34	0.25	–
GAT A14T G17T	2.72	0.69	–
GAT G15A G17T	2.71	0.25	–
GAT G15A G17A	2.59	0.14	–
GAG T8G A14G	3.43	0.29	–
GAT A58G T59C	5.1	0.17	–
GAT G15A	2.21	0.32	0.4
GAT G15C	2.44	0.47	–
GAT A14G A20T	3.03	0.3	–
GAG T53A	-0.152	0.4	–
GAG T53G	-0.377	0.58	0.25
